Test results as given in publication PMC4695046.
These are yes or no findings as the source states them, for the method shown. In cells and extracts the contact can be indirect. Binding calls can cover weak binding; strength is not graded here.

Amino acid sequences for entries named in this document (tags omitted). A change or cut given only in a name is not applied to a line headed by its entry.
UniProt P07339: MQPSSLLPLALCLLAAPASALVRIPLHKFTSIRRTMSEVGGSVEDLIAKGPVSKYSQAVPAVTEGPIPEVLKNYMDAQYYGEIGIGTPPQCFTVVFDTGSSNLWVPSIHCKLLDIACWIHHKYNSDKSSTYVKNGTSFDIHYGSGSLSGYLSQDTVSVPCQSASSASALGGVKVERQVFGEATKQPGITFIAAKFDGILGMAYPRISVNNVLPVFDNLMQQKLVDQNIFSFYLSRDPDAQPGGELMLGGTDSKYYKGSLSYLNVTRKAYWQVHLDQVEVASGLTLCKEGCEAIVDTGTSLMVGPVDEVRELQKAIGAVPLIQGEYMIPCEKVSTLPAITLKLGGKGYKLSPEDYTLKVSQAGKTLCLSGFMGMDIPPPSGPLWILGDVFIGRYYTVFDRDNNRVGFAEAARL
UniProt P46379: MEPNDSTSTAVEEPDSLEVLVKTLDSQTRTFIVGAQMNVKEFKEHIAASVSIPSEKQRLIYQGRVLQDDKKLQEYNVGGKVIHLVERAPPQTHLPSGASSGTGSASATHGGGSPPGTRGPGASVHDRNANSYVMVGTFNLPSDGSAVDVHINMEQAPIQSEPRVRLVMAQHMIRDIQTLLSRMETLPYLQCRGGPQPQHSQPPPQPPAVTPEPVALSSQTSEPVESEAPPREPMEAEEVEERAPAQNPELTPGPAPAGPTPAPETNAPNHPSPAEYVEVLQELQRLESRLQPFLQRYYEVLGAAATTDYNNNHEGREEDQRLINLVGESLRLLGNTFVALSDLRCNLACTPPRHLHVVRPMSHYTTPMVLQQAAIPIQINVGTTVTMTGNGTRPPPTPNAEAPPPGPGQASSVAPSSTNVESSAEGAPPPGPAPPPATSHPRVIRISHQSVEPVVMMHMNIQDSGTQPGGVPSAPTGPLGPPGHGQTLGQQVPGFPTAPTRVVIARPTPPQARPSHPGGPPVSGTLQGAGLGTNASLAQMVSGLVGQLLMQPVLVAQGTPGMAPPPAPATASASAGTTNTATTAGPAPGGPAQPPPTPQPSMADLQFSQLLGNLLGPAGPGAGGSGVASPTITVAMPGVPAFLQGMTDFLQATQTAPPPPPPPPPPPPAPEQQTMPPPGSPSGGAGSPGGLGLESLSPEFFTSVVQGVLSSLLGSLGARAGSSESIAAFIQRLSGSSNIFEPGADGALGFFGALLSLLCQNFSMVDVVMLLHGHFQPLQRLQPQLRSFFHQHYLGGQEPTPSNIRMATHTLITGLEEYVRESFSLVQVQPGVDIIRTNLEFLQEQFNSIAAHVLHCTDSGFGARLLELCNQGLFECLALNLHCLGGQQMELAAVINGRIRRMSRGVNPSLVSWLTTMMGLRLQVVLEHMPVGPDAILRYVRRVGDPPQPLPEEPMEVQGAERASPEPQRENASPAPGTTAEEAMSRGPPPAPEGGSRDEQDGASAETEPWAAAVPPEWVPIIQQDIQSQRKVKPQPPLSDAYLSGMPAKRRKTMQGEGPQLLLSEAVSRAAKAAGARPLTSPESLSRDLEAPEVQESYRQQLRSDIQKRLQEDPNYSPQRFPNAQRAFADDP

Assays:
GST-52K Cath-D (human) = GST-52K Cath-D (human) (UniProt P07339); experiment: pull-down; GST-Cath-D fusion proteins immobilised on glutathione-Sepharose beads, incubated overnight at 4°C with [35S]methionine-labeled in vitro translated proteins in PDB buffer (20 mM HEPES-KOH pH 7.9, 10% glycerol, 100 mM KCl, 5 mM MgCl2, 0.2 mM EDTA, 1 mM DTT) with 15 mg/ml BSA and 0.1% Tween-20; four washes; autoradiography; only the target purified
GST-48K Cath-D (human) = experiment: as above

binding (GST-52K Cath-D (human)) | binding (GST-48K Cath-D (human)) | Molecule
binds |  | full-length BAT3, radio-labeled (from UniProt P46379 1-1132)
 | no binding | TRPS1 fragment F10 (aa 635–819) (domain or fragment, UniProt Q9UHF7 635-819, [35S]methionine-labeled) SVHESQASDVKQEANHLQGSDGQQSVKESKEHSCTKCDFITQVEEEISRHYRRAHSCYKCRQCSFTAADTQSLLEHFNTVHCQEQDITTANGEEDGHAISTIKEEPKIDFRVYNLLTPDSKMGEPVSESVVKREKLEEKDGLKEKVWTESSSDDLRNVTWRGADILRGSPSYTQASLGLLTPVSG
 | no binding | TRPS1 fragment F9 (aa 635–984) (domain or fragment, UniProt Q9UHF7 635-984, [35S]methionine-labeled) SVHESQASDVKQEANHLQGSDGQQSVKESKEHSCTKCDFITQVEEEISRHYRRAHSCYKCRQCSFTAADTQSLLEHFNTVHCQEQDITTANGEEDGHAISTIKEEPKIDFRVYNLLTPDSKMGEPVSESVVKREKLEEKDGLKEKVWTESSSDDLRNVTWRGADILRGSPSYTQASLGLLTPVSGTQEQTKTLRDSPNVEAAHLARPIYGLAVETKGFLQGAPAGGEKSGALPQQYPASGENKSKDESQSLLRRRRGSGVFCANCLTTKTSLWRKNANGGYVCNACGLYQKLHSTPRPLNIIKQNNGEQIIRRRTRKRLNPEALQAEQLNKQQRGSNEEQVNGSPLERRS
 | binds | full-length TRPS1, radio-labeled, synthesized in a reticulocyte lysate system (protein, UniProt Q9UHF7 1-1281, [35S]methionine-labeled) MVRKKNPPLRNVASEGEGQILEPIGTESKVSGKNKEFSADQMSENTDQSDAAELNHKEEHSLHVQDPSSSSKKDLKSAVLSEKAGFNYESPSKGGNFPSFPHDEVTDRNMLAFSSPAAGGVCEPLKSPQRAEADDPQDMACTPSGDSLETKEDQKMSPKATEETGQAQSGQANCQGLSPVSVASKNPQVPSDGGVRLNKSKTDLLVNDNPDPAPLSPELQDFKCNICGYGYYGNDPTDLIKHFRKYHLGLHNRTRQDAELDSKILALHNMVQFSHSKDFQKVNRSVFSGVLQDINSSRPVLLNGTYDVQVTSGGTFIGIGRKTPDCQGNTKYFRCKFCNFTYMGNSSTELEQHFLQTHPNKIKASLPSSEVAKPSEKNSNKSIPALQSSDSGDLGKWQDKITVKAGDDTPVGYSVPIKPLDSSRQNGTEATSYYWCKFCSFSCESSSSLKLLEHYGKQHGAVQSGGLNPELNDKLSRGSVINQNDLAKSSEGETMTKTDKSSSGAKKKDFSSKGAEDNMVTSYNCQFCDFRYSKSHGPDVIVVGPLLRHYQQLHNIHKCTIKHCPFCPRGLCSPEKHLGEITYPFACRKSNCSHCALLLLHLSPGAAGSSRVKHQCHQCSFTTPDVDVLLFHYESVHESQASDVKQEANHLQGSDGQQSVKESKEHSCTKCDFITQVEEEISRHYRRAHSCYKCRQCSFTAADTQSLLEHFNTVHCQEQDITTANGEEDGHAISTIKEEPKIDFRVYNLLTPDSKMGEPVSESVVKREKLEEKDGLKEKVWTESSSDDLRNVTWRGADILRGSPSYTQASLGLLTPVSGTQEQTKTLRDSPNVEAAHLARPIYGLAVETKGFLQGAPAGGEKSGALPQQYPASGENKSKDESQSLLRRRRGSGVFCANCLTTKTSLWRKNANGGYVCNACGLYQKLHSTPRPLNIIKQNNGEQIIRRRTRKRLNPEALQAEQLNKQQRGSNEEQVNGSPLERRSEDHLTESHQREIPLPSLSKYEAQGSLTKSHSAQQPVLVSQTLDIHKRMQPLHIQIKSPQESTGDPGNSSSVSEGKGSSERGSPIEKYMRPAKHPNYSPPGSPIEKYQYPLFGLPFVHNDFQSEADWLRFWSKYKLSVPGNPHYLSHVPGLPNPCQNYVPYPTFNLPPHFSAVGSDNDIPLDLAIKHSRPGPTANGASKEKTKAPPNVKNEGPLNVVKTEKVDRSTQDELSTKCVHCGIVFLDEVMYALHMSCHGDSGPFQCSICQHLCTDKYDFTTHIQRGLHRNNAQVEKNGKPKE

Continued, molecule first:

Molecule | binding (GST-52K Cath-D (human)) | binding (GST-48K Cath-D (human))
TRPS1 fragment F6 (635–1184) (domain or fragment, UniProt Q9UHF7 635-1184, [35S]methionine-labeled) SVHESQASDVKQEANHLQGSDGQQSVKESKEHSCTKCDFITQVEEEISRHYRRAHSCYKCRQCSFTAADTQSLLEHFNTVHCQEQDITTANGEEDGHAISTIKEEPKIDFRVYNLLTPDSKMGEPVSESVVKREKLEEKDGLKEKVWTESSSDDLRNVTWRGADILRGSPSYTQASLGLLTPVSGTQEQTKTLRDSPNVEAAHLARPIYGLAVETKGFLQGAPAGGEKSGALPQQYPASGENKSKDESQSLLRRRRGSGVFCANCLTTKTSLWRKNANGGYVCNACGLYQKLHSTPRPLNIIKQNNGEQIIRRRTRKRLNPEALQAEQLNKQQRGSNEEQVNGSPLERRSEDHLTESHQREIPLPSLSKYEAQGSLTKSHSAQQPVLVSQTLDIHKRMQPLHIQIKSPQESTGDPGNSSSVSEGKGSSERGSPIEKYMRPAKHPNYSPPGSPIEKYQYPLFGLPFVHNDFQSEADWLRFWSKYKLSVPGNPHYLSHVPGLPNPCQNYVPYPTFNLPPHFSAVGSDNDIPLDLAIKHSRPGPTANGASKEK |  | binds
TRPS1 fragment F5 (aa 635–1281) (domain or fragment, UniProt Q9UHF7 635-1281, [35S]methionine-labeled) SVHESQASDVKQEANHLQGSDGQQSVKESKEHSCTKCDFITQVEEEISRHYRRAHSCYKCRQCSFTAADTQSLLEHFNTVHCQEQDITTANGEEDGHAISTIKEEPKIDFRVYNLLTPDSKMGEPVSESVVKREKLEEKDGLKEKVWTESSSDDLRNVTWRGADILRGSPSYTQASLGLLTPVSGTQEQTKTLRDSPNVEAAHLARPIYGLAVETKGFLQGAPAGGEKSGALPQQYPASGENKSKDESQSLLRRRRGSGVFCANCLTTKTSLWRKNANGGYVCNACGLYQKLHSTPRPLNIIKQNNGEQIIRRRTRKRLNPEALQAEQLNKQQRGSNEEQVNGSPLERRSEDHLTESHQREIPLPSLSKYEAQGSLTKSHSAQQPVLVSQTLDIHKRMQPLHIQIKSPQESTGDPGNSSSVSEGKGSSERGSPIEKYMRPAKHPNYSPPGSPIEKYQYPLFGLPFVHNDFQSEADWLRFWSKYKLSVPGNPHYLSHVPGLPNPCQNYVPYPTFNLPPHFSAVGSDNDIPLDLAIKHSRPGPTANGASKEKTKAPPNVKNEGPLNVVKTEKVDRSTQDELSTKCVHCGIVFLDEVMYALHMSCHGDSGPFQCSICQHLCTDKYDFTTHIQRGLHRNNAQVEKNGKPKE |  | binds
TRPS1 fragment F1 (aa 1185–1281) (domain or fragment, UniProt Q9UHF7 1185-1281, [35S]methionine-labeled) TKAPPNVKNEGPLNVVKTEKVDRSTQDELSTKCVHCGIVFLDEVMYALHMSCHGDSGPFQCSICQHLCTDKYDFTTHIQRGLHRNNAQVEKNGKPKE |  | no binding
